Tested on: cancer tissues compared to normal tissues
Experiment: Identification and label-free relative LC-MS quantitation of HLA-presented tumor associated peptides (presentation profiles)
Set-up: species or system human
[1] = FIG. 1E-J, 7A-C, more than 320 normal tissue samples and 462 cancer samples analysed

Substance | cell lines where the peptide was found to be presented (FIG. 1E-J) | cancer tissues where the peptide was found to be presented [1] | normal tissues where the peptide was found to be presented [1] | cancer tissue samples where the peptide was found to be presented (FIG. 1A-D, more than 170 normal tissue samples and 376 cancer samples analysed)
SEQ ID NO.: 2 (SVLEKEIYSI; listed as Homo sapiens) | 4 cell lines | 52 samples | 2 samples | –
SEQ ID NO.: 243 (GLAEFQENV; listed as Homo sapiens) | 3 cell lines | 67 samples | – | –
SEQ ID NO.: 40 (KIWEELSVLEV; listed as Homo sapiens) | – | 8 samples | – | –
SEQ ID NO.: 11 (LLDPKTIFL; listed as Homo sapiens) | – | – | – | 13 samples

From US10081665B2, “Peptides and combination of peptides for use in immunotherapy against various tumors” (immatics biotechnologies GmbH, priority 2015, dated 2018)
